This is one part of the list.
B1: il10ra_site1_normal_mot_HHH_b1_01821_000000158_0001_23_39_H_._HHH_b1_04578_0001_0000500034_0000001_1 (protein)
chain: SSSSSEFQRLAQRAVQLAFRLSDQEVLRRIWELFKRYIEEGDPRLEEELEELLEELEERGSSSSS
B2: il10ra_site1_sap_15_mot_47763b419dcba15278d0659274068abf_0001_af2_000000068_0001_35_48_H_._HHH_b2_05710_0001_0000300013_0000002_0_0001 (protein)
chain: SSSSSSDAEEEARELIEEAEQIEDERKAVEILAEAVRLAFEAGNAELLREIWRAIKELSSSSSSS
B3: il10ra_site1_normal_mot_HHH_b2_06795_000000133_0001_42_56_H_._HHH_b1_06187_0001_0000300027_0000002_0 (protein)
chain: SSSSDEEERVRQALRFAEALRKSGSPEAAESLLRFLLQTLKRLGDEELFEEVERLLEELRKSSSS
B4: il10ra_site1_normal_mot_HHH_b2_00984_000000042_0001_1_20_H_._HHH_b2_00283_af2_0002_0000500024_0000001_0 (protein)
chain: SSSSNEEIREALRLAAEASAFAIERSDPELLQELWELIKELAEKGDPELAEELAELAERILSSSS
B5: il10ra_site1_sap_13_mot_HHH_b2_00984_000000042_0001_1_20_H_._HHH_b2_01216_af2_0001_0000500012_0000001_1_0001 (protein)
chain: SSSSSSEAAREVAELLVEASRIEDPEERRKLLEEARRVAEEGNNQLLRWQVEWMEERLEKSSSSS
B6: il10ra_site1_sap_13_mot_HHH_b1_03327_000000294_0001_1_19_H_._HHH_b1_04707_0001_0000500018_0000002_0_0001 (protein)
chain: SSSSSQEELLKLLQEAFRLALRGNPEEAKEVLEEAREIAEELGDERALKMAEDLLRAIEGSSSSS
B7: il10ra_site1_sap_18_mot_05ca327611f5605f0dd8494b449afcbf_0001_1_000000248_0001_35_51_H_._HHH_b1_02758_0001_0000200015_0000001_0_0001 (protein)
chain: SSSSSEAEEYARLASRFARAMYEAGDPEAAQRLLKMMLDVLERLNDEEALEIIREVLEELSSSSS
B8: il10ra_site1_sap_23_mot_HHH_b2_02736_000000092_0001_22_38_H_._HHH_b2_03465_af2_0001_0000100001_0000001_0_0001_af2pred_0001 (protein)
chain: SSSSSEELQEVIRLSREAAELLSEGDEEKAQEVLEEALELAEEANNELAAFLVRSLLKRVSSSSS
B9: il10ra_site1_sap_17_mot_HHH_b1_03900_000000129_0001_1_16_H_._HHH_b1_06013_af2_0001_0000200008_0000001_0_0001 (protein)
chain: SSSSSDEQERLLELSKEAFRLALRGDPEEAQRVLEEAHELAEELGDERAAEMIRDLLKALSSSSS
B10: il10ra_site1_normal_mot_HHH_b1_03031_af2_000000117_0001_17_33_H_._HHH_b2_05648_af2_0001_0000200007_0000001_0_af2pred_0001 (protein)
chain: SSSSDLEEKIKEAEEEVKRLEEEGDEEEARKLILKILYLASRAGDRELAHRLLKLLAEIRSSSSS
B11: il10ra_site1_sap_16_mot_HHH_b1_06348_000000162_0001_1_15_H_._HHH_b2_06365_af2_0001_0000500005_0000001_0_0001 (protein)
chain: SSSSSDEKEELIRLALRLARAFIRGDEELIKELLEEVKKIAKELNDERMLKFLERLEKALSSSSS
B12: il10ra_site1_sap_15_mot_HHH_b1_05329_000000008_0001_43_56_H_._HHH_b2_00508_af2_0001_0000400016_0000001_0_0001 (protein)
chain: SSSSSDVEELLEEVEEAIEEGDLELALELLYEATHFALRAGDAELLHLVWRLVEELKERRSSSSS
B13: il10ra_site1_sap_16_mot_HHH_b2_00984_000000042_0001_1_20_H_._HHH_b1_03130_af2_0002_0000500031_0000001_0_0001 (protein)
chain: SSSSSLAENAHEFWKSLDEWAVRMGDPETVEKLVKHARIALERAGNPELVEELEKLHEELNSSSS
B14: il10ra_site1_normal_mot_HHH_b2_01310_000000089_0001_41_55_H_._HHH_b2_06195_0001_0000100002_0000002_0 (protein)
chain: SSSSSDEEVEELEEEIRRLLEEGNPKEAVRVLQELVRLAFELRDEEAFHLAIELARLIASSSSSS
B15: il10ra_site1_normal_mot_HHH_b1_02809_af2_000000277_0001_40_57_H_._HHH_b1_07120_0001_0000300026_0000001_1 (protein)
chain: SSSSSEAERSVRILIEAAERLEELGDPEKARLTLRFAVALAKAANNPELLEEARELLEKLKSSSS
B16: il10ra_site1_normal_mot_HHH_b1_07503_000000138_0001_1_18_H_._HHH_b1_01429_0001_0000200008_0000001_0 (protein)
chain: SSSSNYEEAIENAARQAFETIEKLGNPEAEQYLETLLEAARILGDEELEELIEQLLRELRSSSSS
B17: il10ra_site1_sap_26_mot_HHH_b1_03531_000000273_0001_41_54_H_._9f5b7fc4e9d6b3037bff8dd1fb84ce76_0001_0001_0000300016_0000001_0_0001 (protein)
chain: SSSSSTEEAYRLSREAVELASEGDPEEAEKVAEEALEIAEEEGNRVVAVVIRYVLEVIRNSSSSS
B18: il10ra_site1_sap_20_mot_HHH_b2_05540_000000178_0001_1_18_H_._HHH_b2_06309_0001_0000100008_0000001_0_0001 (protein)
chain: SSSSSDEVEEEVEELLEEARQIEDKEKALRLVLEALRFAIQNQNKELLRLVWKVVHEVAQSSSSS
B19: il10ra_site1_normal_mot_HHH_b1_07641_af2_000000285_0001_1_21_H_._HHH_b1_01682_af2_0001_0000200014_0000002_0_af2pred_0001 (protein)
chain: SSSSSEEVIELIREAAQLLREGDKEEAREVAKEALELAEELGNVIARVNIELLIRDIEDLSSSSS
B20: il10ra_site1_sap_20_mot_HHH_b2_03163_000000105_0001_1_19_H_._HHH_b2_03057_af2_0001_0000200008_0000001_0_0001_af2pred_0001 (protein)
chain: SSSSSEDRELARLSLRAARWLAKANDEEAIRIAFHFVKLLLELTNDEEVRELLEEIEELLSSSSS
B21: il10ra_site1_sap_14_mot_HHH_b2_00952_af2_000000228_0001_1_18_H_._HHH_b1_02318_0002_0000300043_0000001_0_0001 (protein)
chain: SSSSDEAYEVAKKAIERVIELYRRGNEEEAKELLEEALREVEELNNWAALWSLRHLLRVLKSSSS
B22: il10ra_site1_normal_mot_8756ee2cf497b5429c717dfc0c0bcfd6_0001_000000186_0001_1_13_H_._HHH_b2_06757_0001_0000400009_0000001_0_af2pred_0001 (protein)
chain: SSSSSSQEVLQELRRLLEEALRIEDEEEAKEVLEEARELAEENNNLIFLAILEFLLKRLSSSSSS
B23: il10ra_site1_sap_13_mot_HHH_b2_00800_af2_000000047_0001_1_20_H_._HHH_b2_07878_af2_0001_0000500019_0000002_0_0001_af2pred_0001 (protein)
chain: SSSSTQAEALFRLARESVEYALEQGNEELARRSLKLRIFSLEELGDEELAKELHELLREISSSSS
B24: il10ra_site1_normal_mot_HHH_b1_03031_af2_000000117_0001_17_33_H_._HHH_b1_04005_af2_0001_0000700014_0000002_0 (protein)
chain: SSSSSDEEERRRAAELYFRAARLGDEELAVRLIQLLARYLQEGDPRYVEEMEELVEEVEKSSSSS
B25: il10ra_site1_normal_mot_HHH_b2_02463_af2_000000222_0001_1_19_H_._HHH_b1_06264_af2_0001_0000100001_0000001_0_af2pred_0001 (protein)
chain: SSSSDEEEREELKERIEEAIEKNDPELLLKLAIEAAQLALQLEDRELTELVLEAAELLRRLSSSS
B26: il10ra_site1_normal_mot_HHH_b2_00475_000000002_0001_44_57_H_._HHH_b1_00702_af2_0001_0000600012_0000002_0_af2pred_0001 (protein)
chain: SSSSNEEAVELALRALEIAYELGDKEKFEAAYRLAEREIKRLGDEELERELKELYEELEKSSSSS
B27: il10ra_site1_normal_mot_HHH_b1_01011_000000096_0001_1_19_H_._HHH_b1_07452_0001_0000100012_0000001_0 (protein)
chain: SSSSSEEERYLKLSLRFAEALLENGDPEAARRILEAAEDIARRLGNEELLERAEELLEEARSSSS
B28: il10ra_site1_sap_19_mot_HHH_b2_02022_af2_000000170_0001_1_16_H_._107009d5f73eb0e6f3dc327d02cea2e3_0001_1_af2_0001_0000500018_0000001_0_0001 (protein)
chain: SSSSDAREEALRLAQEAFHLALRGNPEEARELLEEAEKLAEEINDERLLEVIRNLLEAVRSSSSS
B29: il10ra_site1_normal_mot_HHH_b2_07579_000000275_0001_1_19_H_._HHH_b1_03645_0001_0000100011_0000001_0_af2pred_0001 (protein)
chain: SSSSSSKAEEVVRLIREAIRLLKEGNPEQAREVLEEALRIAEEAGNPLLEISVRHLLRTISSSSS
B30: il10ra_site1_sap_17_mot_HHH_b1_06583_000000064_0001_43_57_H_._HHH_b2_06223_0001_0000100001_0000001_0_0001 (protein)
chain: SSSSSDELQEALRLSQEAFHAALRGDKEEAERLLEEALELAERGNDERLAEVIRDLLEALSSSSS
B31: il10ra_site1_normal_mot_HHH_b1_06816_000000239_0001_1_19_H_._HHH_b1_08301_0001_0000100003_0000002_0 (protein)
chain: SSSSSDLEEEVEELLEKAEHIEDPDEAFEILREAIELASEANDPELFELIMEVIRKWLNSSSSSS
B32: il10ra_site1_sap_24_mot_HHH_b2_02267_000000141_0001_1_20_H_._HHH_b2_01742_af2_0001_0000300017_0000002_0_0001 (protein)
chain: SSSSDTMEELIKALLRLLRQAIEIGNERSARSLAEAVRLAIERANDEEAEEELKELEKLLKSSSS
B33: il10ra_site1_sap_17_mot_HHH_b2_04006_000000143_0001_42_56_H_._3ff75f044bbd266f07abdfc5542de534_0001_0001_0000400011_0000001_0_0001 (protein)
chain: SSSSDEAYRIAEEAIEEALRLLREGDPEEAHKLLEEALRLLEELGNWVAVWSLRHLLRAEFSSSS
B34: il10ra_site1_sap_18_mot_HHH_b1_00665_000000097_0001_23_39_H_._HHH_b1_06912_af2_0001_0000200007_0000001_1_0001 (protein)
chain: SSSSDEEEERIRELLERVEELLEEGDWERASKLAQEALRLIYRANDEELLQELWEIIASNSSSSS
B35: il10ra_site1_sap_25_mot_HHH_b2_03183_af2_000000055_0001_40_56_H_._HHH_b1_07492_0001_0000200020_0000001_0_0001 (protein)
chain: SSSSDEAEERLEELLEEAERLLEEGDPREALRVLQEAVRFAIRAGDEETLQRIWELVKKVASSSS
B36: il10ra_site1_normal_mot_HHH_b2_02337_000000026_0001_38_52_H_._HHH_b2_01503_0001_0000100001_0000002_0 (protein)
chain: SSSSSEEVEELLEEARELLEKGNPEEAARVLAEAARFAHRLGDEELLQLVWELVRKVAEASSSSS
B37: il10ra_site1_normal_mot_HHH_b1_02492_000000051_0001_1_21_H_._HHH_b1_07524_0001_0000100003_0000001_0_af2pred_0001 (protein)
chain: SSSSSDEEFEEEVRELLEQAERTDDPQERFELLRKAIELALEGNNPELIKEVREVARRLFSSSSS

target: il10ra, Q13651; test: yeast display titration

Apparent Kd, inactive:
B1 no binding seen, B2 no binding seen, B3 no binding seen, B4 no binding seen, B5 no binding seen, B6 no binding seen, B7 no binding seen, B8 no binding seen, B9 no binding seen, B10 no binding seen, B11 no binding seen, B12 no binding seen, B13 no binding seen, B14 no binding seen, B15 no binding seen, B16 no binding seen, B17 no binding seen, B18 no binding seen, B19 no binding seen, B20 no binding seen, B21 > 583 nM, B22 no binding seen, B23 no binding seen, B24 no binding seen, B25 no binding seen, B26 no binding seen, B27 no binding seen, B28 > 1250 nM, B29 no binding seen, B30 no binding seen, B31 no binding seen, B32 no binding seen, B33 no binding seen, B34 no binding seen, B35 no binding seen, B36 no binding seen, B37 no binding seen
